Experimental data as given in publication PMC5384328.

Protein sequences, listed by entry. Tags and fused reporters are not part of them.
UniProt P55060: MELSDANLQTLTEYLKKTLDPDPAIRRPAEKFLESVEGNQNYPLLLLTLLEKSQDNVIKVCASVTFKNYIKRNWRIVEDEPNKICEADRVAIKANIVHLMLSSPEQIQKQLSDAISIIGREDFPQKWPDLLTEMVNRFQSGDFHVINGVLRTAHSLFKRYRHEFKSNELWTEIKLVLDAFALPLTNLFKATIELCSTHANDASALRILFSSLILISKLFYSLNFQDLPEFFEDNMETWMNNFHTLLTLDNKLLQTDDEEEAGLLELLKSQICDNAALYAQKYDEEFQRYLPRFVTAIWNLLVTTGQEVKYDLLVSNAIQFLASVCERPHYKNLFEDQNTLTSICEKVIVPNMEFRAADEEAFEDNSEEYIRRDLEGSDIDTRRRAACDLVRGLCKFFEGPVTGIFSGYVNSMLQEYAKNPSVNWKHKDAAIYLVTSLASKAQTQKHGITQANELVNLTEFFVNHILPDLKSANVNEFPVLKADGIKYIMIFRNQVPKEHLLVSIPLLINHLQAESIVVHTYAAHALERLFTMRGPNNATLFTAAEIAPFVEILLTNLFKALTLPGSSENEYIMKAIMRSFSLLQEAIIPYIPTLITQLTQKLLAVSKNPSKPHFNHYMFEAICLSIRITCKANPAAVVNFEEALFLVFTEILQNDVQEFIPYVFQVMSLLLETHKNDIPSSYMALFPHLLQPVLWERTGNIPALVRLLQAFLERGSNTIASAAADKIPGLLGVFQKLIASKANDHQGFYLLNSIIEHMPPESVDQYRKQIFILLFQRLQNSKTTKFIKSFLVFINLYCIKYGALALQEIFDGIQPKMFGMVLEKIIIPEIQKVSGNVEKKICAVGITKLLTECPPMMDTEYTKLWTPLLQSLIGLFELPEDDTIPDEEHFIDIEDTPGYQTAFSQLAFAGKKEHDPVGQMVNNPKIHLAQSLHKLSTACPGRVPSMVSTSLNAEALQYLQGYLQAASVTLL
UniProt Q04206: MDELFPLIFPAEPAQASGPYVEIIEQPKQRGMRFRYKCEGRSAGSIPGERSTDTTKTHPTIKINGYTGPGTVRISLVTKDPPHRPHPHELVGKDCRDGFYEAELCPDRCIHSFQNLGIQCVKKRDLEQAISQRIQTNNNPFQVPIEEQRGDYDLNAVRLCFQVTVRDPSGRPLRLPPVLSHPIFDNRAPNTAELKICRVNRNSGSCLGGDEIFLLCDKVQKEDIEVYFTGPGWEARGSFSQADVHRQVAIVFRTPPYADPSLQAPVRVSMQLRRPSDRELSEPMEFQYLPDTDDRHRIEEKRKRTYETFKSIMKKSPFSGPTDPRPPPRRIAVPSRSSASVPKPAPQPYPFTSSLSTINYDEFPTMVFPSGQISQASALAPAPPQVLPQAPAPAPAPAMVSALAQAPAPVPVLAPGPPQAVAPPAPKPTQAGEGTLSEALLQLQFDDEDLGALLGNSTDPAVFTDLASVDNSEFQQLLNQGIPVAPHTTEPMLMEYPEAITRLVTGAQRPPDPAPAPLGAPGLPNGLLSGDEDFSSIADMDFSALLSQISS
UniProt P12956: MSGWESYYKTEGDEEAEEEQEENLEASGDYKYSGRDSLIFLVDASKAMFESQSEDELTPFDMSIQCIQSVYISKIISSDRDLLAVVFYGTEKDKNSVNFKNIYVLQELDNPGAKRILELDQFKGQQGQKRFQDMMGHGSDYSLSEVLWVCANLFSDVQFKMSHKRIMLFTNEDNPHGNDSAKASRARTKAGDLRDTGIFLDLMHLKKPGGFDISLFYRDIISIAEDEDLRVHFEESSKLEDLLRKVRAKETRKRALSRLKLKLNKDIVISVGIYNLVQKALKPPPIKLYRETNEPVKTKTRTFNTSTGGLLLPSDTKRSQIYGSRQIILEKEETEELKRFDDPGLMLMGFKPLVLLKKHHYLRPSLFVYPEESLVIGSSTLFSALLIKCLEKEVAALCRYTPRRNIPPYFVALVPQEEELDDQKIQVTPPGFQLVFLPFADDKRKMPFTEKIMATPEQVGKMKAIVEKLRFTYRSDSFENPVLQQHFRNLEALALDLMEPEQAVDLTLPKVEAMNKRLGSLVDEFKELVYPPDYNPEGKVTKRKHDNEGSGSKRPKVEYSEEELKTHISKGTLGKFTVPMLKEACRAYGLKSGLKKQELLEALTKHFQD
UniProt P52701: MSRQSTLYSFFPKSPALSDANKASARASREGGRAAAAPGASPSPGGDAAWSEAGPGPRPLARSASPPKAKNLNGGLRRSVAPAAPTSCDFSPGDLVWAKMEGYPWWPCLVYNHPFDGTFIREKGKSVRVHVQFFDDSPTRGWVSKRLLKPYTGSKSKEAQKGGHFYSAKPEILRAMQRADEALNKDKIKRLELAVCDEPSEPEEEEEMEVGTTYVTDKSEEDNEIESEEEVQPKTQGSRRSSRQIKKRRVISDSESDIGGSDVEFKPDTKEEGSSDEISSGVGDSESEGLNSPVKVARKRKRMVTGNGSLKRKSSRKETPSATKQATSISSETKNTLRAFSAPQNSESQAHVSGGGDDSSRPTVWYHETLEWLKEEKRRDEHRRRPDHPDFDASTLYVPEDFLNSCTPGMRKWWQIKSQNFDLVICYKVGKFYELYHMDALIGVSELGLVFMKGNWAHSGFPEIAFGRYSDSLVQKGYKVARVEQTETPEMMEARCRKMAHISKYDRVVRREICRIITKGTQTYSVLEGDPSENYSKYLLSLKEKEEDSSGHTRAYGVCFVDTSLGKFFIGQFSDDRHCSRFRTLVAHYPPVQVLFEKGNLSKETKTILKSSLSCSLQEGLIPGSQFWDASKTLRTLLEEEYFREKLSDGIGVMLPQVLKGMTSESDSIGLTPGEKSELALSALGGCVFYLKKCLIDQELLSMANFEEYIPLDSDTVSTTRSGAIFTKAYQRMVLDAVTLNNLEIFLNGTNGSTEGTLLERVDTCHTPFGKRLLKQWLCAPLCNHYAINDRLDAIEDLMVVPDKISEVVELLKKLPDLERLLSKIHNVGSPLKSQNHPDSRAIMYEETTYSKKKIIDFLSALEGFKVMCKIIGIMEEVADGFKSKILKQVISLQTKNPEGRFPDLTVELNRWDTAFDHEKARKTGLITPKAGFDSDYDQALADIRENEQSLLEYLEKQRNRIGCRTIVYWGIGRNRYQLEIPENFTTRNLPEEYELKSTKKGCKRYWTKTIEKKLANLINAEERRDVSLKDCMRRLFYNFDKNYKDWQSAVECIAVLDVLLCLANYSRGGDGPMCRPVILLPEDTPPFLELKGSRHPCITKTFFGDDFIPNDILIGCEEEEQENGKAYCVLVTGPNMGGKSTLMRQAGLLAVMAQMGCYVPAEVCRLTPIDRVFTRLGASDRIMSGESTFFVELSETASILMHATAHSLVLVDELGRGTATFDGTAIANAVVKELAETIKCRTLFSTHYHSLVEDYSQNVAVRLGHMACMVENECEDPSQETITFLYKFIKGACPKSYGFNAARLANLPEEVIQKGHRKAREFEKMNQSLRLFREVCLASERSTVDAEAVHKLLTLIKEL

Biological target: chromosome segregation 1-like (CSE1L) protein (human (endogenous in MNNG/HOS and U2OS)) (UniProt P55060)
Assay: affinity purification with mass spectrometry; MNNG/HOS lysate (3000 ug protein) incubated with anti-CSE1L antibody at 4 °C overnight, protein A/G magnetic beads 3 h at 4 °C, washed with PBS containing 1% Triton X-100; CSE1L-bound proteins separated by SDS-PAGE, trypsin digestion, NanoLC-MS/MS; IgG control

binding | Molecule
binds | RELA (from UniProt Q04206 1-551)
binds | XRCC6 (from UniProt P12956 1-609)
binds | mutS homolog 6 (MSH6) (from UniProt P52701 1-1360)
binds | PYCR1 (protein, UniProt P32322 1-319) MSVGFIGAGQLAFALAKGFTAAGVLAAHKIMASSPDMDLATVSALRKMGVKLTPHNKETVQHSDVLFLAVKPHIIPFILDEIGADIEDRHIVVSCAAGVTISSIEKKLSAFRPAPRVIRCMTNTPVVVREGATVYATGTHAQVEDGRLMEQLLSSVGFCTEVEEDLIDAVTGLSGSGPAYAFTALDALADGGVKMGLPRRLAVRLGAQALLGAAKMLLHSEQHPGQLKDNVSSPGGATIHALHVLESGGFRSLLINAVEASCIRTRELQSMADQEQVSPAAIKKTILDKVKLDSPAGTALSPSGHTKLLPRSLAPAGKD
binds | PYCR2 (protein, UniProt Q96C36 1-320) MSVGFIGAGQLAYALARGFTAAGILSAHKIIASSPEMNLPTVSALRKMGVNLTRSNKETVKHSDVLFLAVKPHIIPFILDEIGADVQARHIVVSCAAGVTISSVEKKLMAFQPAPKVIRCMTNTPVVVQEGATVYATGTHALVEDGQLLEQLMSSVGFCTEVEEDLIDAVTGLSGSGPAYAFMALDALADGGVKMGLPRRLAIQLGAQALLGAAKMLLDSEQHPCQLKDNVCSPGGATIHALHFLESGGFRSLLINAVEASCIRTRELQSMADQEKISPAALKKTLLDRVKLESPTVSTLTPSSPGKLLTRSLALGGKKD

These are yes or no findings as the source states them, for the method shown. Binding seen in cells or lysates may run through a third protein. Here binding means that the protein was enriched with, or labelled near, the bait; the list need not be complete.
